# In paper PMC5007552:
# No constants are given. Whether binding was seen depends on the method and setting. In cells and extracts the contact can be indirect. Some binding calls cover weakened binding; strength is not graded here. Tags and fused reporters may be left off the sequences shown.
# T1: SGK3 [S486E]-GST (human) (UniProt Q96BR1)
# T1 sequence: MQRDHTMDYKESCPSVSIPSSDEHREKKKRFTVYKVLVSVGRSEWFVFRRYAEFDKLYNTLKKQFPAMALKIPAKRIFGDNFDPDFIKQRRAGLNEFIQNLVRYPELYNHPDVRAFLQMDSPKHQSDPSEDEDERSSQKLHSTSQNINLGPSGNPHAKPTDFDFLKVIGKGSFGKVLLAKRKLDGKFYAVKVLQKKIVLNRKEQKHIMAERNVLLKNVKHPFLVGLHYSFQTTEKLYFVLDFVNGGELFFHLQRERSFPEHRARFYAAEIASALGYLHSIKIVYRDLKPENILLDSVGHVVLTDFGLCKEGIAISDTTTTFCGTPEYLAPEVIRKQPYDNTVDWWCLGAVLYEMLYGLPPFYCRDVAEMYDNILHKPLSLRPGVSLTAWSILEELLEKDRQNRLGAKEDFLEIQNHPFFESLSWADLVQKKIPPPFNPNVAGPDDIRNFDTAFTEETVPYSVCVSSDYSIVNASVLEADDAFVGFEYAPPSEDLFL
# B1: phosphoinositide-dependent kinase 1 (PDK1), endogenous (enzyme, UniProt O15530 1-556)
# chain: MARTTSQLYDAVPIQSSVVLCSCPSPSMVRTQTESSTPPGIPGGSRQGPAMDGTAAEPRPGAGSLQHAQPPPQPRKKRPEDFKFGKILGEGSFSTVVLARELATSREYAIKILEKRHIIKENKVPYVTRERDVMSRLDHPFFVKLYFTFQDDEKLYFGLSYAKNGELLKYIRKIGSFDETCTRFYTAEIVSALEYLHGKGIIHRDLKPENILLNEDMHIQITDFGTAKVLSPESKQARANSFVGTAQYVSPELLTEKSACKSSDLWALGCIIYQLVAGLPPFRAGNEYLIFQKIIKLEYDFPEKFFPKARDLVEKLLVLDATKRLGCEEMEGYGPLKAHPFFESVTWENLHQQTPPKLTAYLPAMSEDDEDCYGNYDNLLSQFGCMQVSSSSSSHSLSASDTGLPQRSGSNIEQYIHDLDSNSFELDLQFSEDEKRLLLEKQAGGNPWHQFVENNLILKMGPVDKRKGLFARRRQLLLTEGPHLYYVDPVNKVLKGEIPWSQELRPEAKNFKTFFVHTPNRTYYLMDPSGNAHKWCRKIQEVWRQRYQSHPDAAVQ
# Target: T1, SGK3 [S486E]-GST (human)
# Assay: pull-down
binder,measurement,value
B1,binding,binds
